Measurements reported in PubChem BioAssay AID1159595 (NIAID, 2016)
Here is an unselected part of 756 reagents tested. Over the whole deposit, 115 (15%) were called active. 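Active calls cover both lowered and raised reporter signal; each score refers to one siRNA rather than a whole gene.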 Reagents against one gene are numbered here. No sequences are given here. Not given: the amount of reagent.

Assay: 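Which toll-like receptor pathway genes macrophages need for Pam3CSK4-induced Tnf promoter activity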 (primary screen)
System: mouse RAW264.7 macrophage reporter cells
Reagents: single siRNA against mouse genes
Duration: assayed 48 to 72 hours after siRNA transfection; ligand applied for 16 hours
Treatment: Pam3CSK4 (TLR2 ligand) for 16 hours before fixation; dose not given
Detection: 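High-content imaging of Tnf promoter-driven nuclear mCherry in cells given Pam3CSK4 for 16 h, 48–72 h after transfection; value is the replicate mean of plate-normalised background-corrected robust z-scores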
Direction: Tnf reporter z-score (replicate mean): higher = stronger Tnf promoter reporter signal than negative control wells
Active means: 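An siRNA is active when its replicate-mean z-score is -1.5 or lower or 1.5 or higher (activity score at least 50); activity graded at absolute z 1, 1.5, 2 and 2.5; calls apply to single siRNAs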
Meaning of the calls: active = strong change (up or down); inactive = little change

{"gene knocked down": "Fos (Fos proto-oncogene, AP-1 transcription factor subunit)", "reagent no.": 1, "Tnf reporter z-score (replicate mean)": -1.97, "activity call": "active"}
{"gene knocked down": "Fos (Fos proto-oncogene, AP-1 transcription factor subunit)", "reagent no.": 2, "Tnf reporter z-score (replicate mean)": -0.405, "activity call": "inactive"}
{"gene knocked down": "Fos (Fos proto-oncogene, AP-1 transcription factor subunit)", "reagent no.": 3, "Tnf reporter z-score (replicate mean)": 0.895, "activity call": "inactive"}
{"gene knocked down": "Fos (Fos proto-oncogene, AP-1 transcription factor subunit)", "reagent no.": 4, "Tnf reporter z-score (replicate mean)": -0.297, "activity call": "inactive"}
{"gene knocked down": "Fos (Fos proto-oncogene, AP-1 transcription factor subunit)", "reagent no.": 5, "Tnf reporter z-score (replicate mean)": -0.766, "activity call": "inactive"}
{"gene knocked down": "Fos (Fos proto-oncogene, AP-1 transcription factor subunit)", "reagent no.": 6, "Tnf reporter z-score (replicate mean)": 0.0851, "activity call": "inactive"}
{"gene knocked down": "Peli1 (pellino 1)", "reagent no.": 1, "Tnf reporter z-score (replicate mean)": 1.01, "activity call": "inactive"}
{"gene knocked down": "Peli1 (pellino 1)", "reagent no.": 2, "Tnf reporter z-score (replicate mean)": 0.271, "activity call": "inactive"}
{"gene knocked down": "Peli1 (pellino 1)", "reagent no.": 3, "Tnf reporter z-score (replicate mean)": 0.402, "activity call": "inactive"}
{"gene knocked down": "Peli1 (pellino 1)", "reagent no.": 4, "Tnf reporter z-score (replicate mean)": 1.89, "activity call": "active"}
{"gene knocked down": "Peli1 (pellino 1)", "reagent no.": 5, "Tnf reporter z-score (replicate mean)": -0.313, "activity call": "inactive"}
{"gene knocked down": "Peli1 (pellino 1)", "reagent no.": 6, "Tnf reporter z-score (replicate mean)": -1.15, "activity call": "inactive"}
{"gene knocked down": "Ptk2b (PTK2 protein tyrosine kinase 2 beta)", "reagent no.": 1, "Tnf reporter z-score (replicate mean)": -0.428, "activity call": "inactive"}
{"gene knocked down": "Ptk2b (PTK2 protein tyrosine kinase 2 beta)", "reagent no.": 2, "Tnf reporter z-score (replicate mean)": 1.38, "activity call": "inactive"}
{"gene knocked down": "Ptk2b (PTK2 protein tyrosine kinase 2 beta)", "reagent no.": 3, "Tnf reporter z-score (replicate mean)": -0.695, "activity call": "inactive"}
{"gene knocked down": "Ptk2b (PTK2 protein tyrosine kinase 2 beta)", "reagent no.": 4, "Tnf reporter z-score (replicate mean)": -0.535, "activity call": "inactive"}
{"gene knocked down": "Ptk2b (PTK2 protein tyrosine kinase 2 beta)", "reagent no.": 5, "Tnf reporter z-score (replicate mean)": 0.666, "activity call": "inactive"}
{"gene knocked down": "Ptk2b (PTK2 protein tyrosine kinase 2 beta)", "reagent no.": 6, "Tnf reporter z-score (replicate mean)": 0.552, "activity call": "inactive"}
{"gene knocked down": "Tirap", "reagent no.": 1, "Tnf reporter z-score (replicate mean)": -2.05, "activity call": "active"}
{"gene knocked down": "Tirap", "reagent no.": 2, "Tnf reporter z-score (replicate mean)": -1.14, "activity call": "inactive"}
{"gene knocked down": "Tirap", "reagent no.": 3, "Tnf reporter z-score (replicate mean)": -1.13, "activity call": "inactive"}
{"gene knocked down": "Tirap", "reagent no.": 4, "Tnf reporter z-score (replicate mean)": -1.8, "activity call": "active"}
{"gene knocked down": "Tirap", "reagent no.": 5, "Tnf reporter z-score (replicate mean)": 0.166, "activity call": "inactive"}
{"gene knocked down": "Tirap", "reagent no.": 6, "Tnf reporter z-score (replicate mean)": -2.49, "activity call": "active"}
{"gene knocked down": "Irak3 (interleukin-1 receptor-associated kinase 3)", "reagent no.": 1, "Tnf reporter z-score (replicate mean)": -0.61, "activity call": "inactive"}
{"gene knocked down": "Irak3 (interleukin-1 receptor-associated kinase 3)", "reagent no.": 2, "Tnf reporter z-score (replicate mean)": -1.46, "activity call": "inactive"}
{"gene knocked down": "Irak3 (interleukin-1 receptor-associated kinase 3)", "reagent no.": 3, "Tnf reporter z-score (replicate mean)": 0.573, "activity call": "inactive"}
{"gene knocked down": "Irak3 (interleukin-1 receptor-associated kinase 3)", "reagent no.": 4, "Tnf reporter z-score (replicate mean)": -0.107, "activity call": "inactive"}
{"gene knocked down": "Irak3 (interleukin-1 receptor-associated kinase 3)", "reagent no.": 5, "Tnf reporter z-score (replicate mean)": -0.18, "activity call": "inactive"}
{"gene knocked down": "Irak3 (interleukin-1 receptor-associated kinase 3)", "reagent no.": 6, "Tnf reporter z-score (replicate mean)": -1.22, "activity call": "inactive"}
{"gene knocked down": "Ripk3 (receptor-interacting serine-threonine kinase 3)", "reagent no.": 1, "Tnf reporter z-score (replicate mean)": -0.514, "activity call": "inactive"}
{"gene knocked down": "Ripk3 (receptor-interacting serine-threonine kinase 3)", "reagent no.": 2, "Tnf reporter z-score (replicate mean)": 0.0599, "activity call": "inactive"}
{"gene knocked down": "Ripk3 (receptor-interacting serine-threonine kinase 3)", "reagent no.": 3, "Tnf reporter z-score (replicate mean)": 0.0872, "activity call": "inactive"}
{"gene knocked down": "Ripk3 (receptor-interacting serine-threonine kinase 3)", "reagent no.": 4, "Tnf reporter z-score (replicate mean)": 0.0985, "activity call": "inactive"}
{"gene knocked down": "Ripk3 (receptor-interacting serine-threonine kinase 3)", "reagent no.": 5, "Tnf reporter z-score (replicate mean)": 1.62, "activity call": "active"}
{"gene knocked down": "Ripk3 (receptor-interacting serine-threonine kinase 3)", "reagent no.": 6, "Tnf reporter z-score (replicate mean)": -0.739, "activity call": "inactive"}

No new results follow: an excerpt of the list.
{"gene knocked down": "Tirap", "reagent no.": 6, "Tnf reporter z-score (replicate mean)": -2.49, "activity call": "active"}
{"gene knocked down": "Irak3 (interleukin-1 receptor-associated kinase 3)", "reagent no.": 1, "Tnf reporter z-score (replicate mean)": -0.61, "activity call": "inactive"}
